The list shows a part of the results. Most values lie at the level of the controls, where differences are scatter.

Sequences of proteins named here, by UniProt entry; tags and fusion partners are left off. A change or cut given only in a name is not applied to a line headed by its entry.
UniProt Q68CJ9: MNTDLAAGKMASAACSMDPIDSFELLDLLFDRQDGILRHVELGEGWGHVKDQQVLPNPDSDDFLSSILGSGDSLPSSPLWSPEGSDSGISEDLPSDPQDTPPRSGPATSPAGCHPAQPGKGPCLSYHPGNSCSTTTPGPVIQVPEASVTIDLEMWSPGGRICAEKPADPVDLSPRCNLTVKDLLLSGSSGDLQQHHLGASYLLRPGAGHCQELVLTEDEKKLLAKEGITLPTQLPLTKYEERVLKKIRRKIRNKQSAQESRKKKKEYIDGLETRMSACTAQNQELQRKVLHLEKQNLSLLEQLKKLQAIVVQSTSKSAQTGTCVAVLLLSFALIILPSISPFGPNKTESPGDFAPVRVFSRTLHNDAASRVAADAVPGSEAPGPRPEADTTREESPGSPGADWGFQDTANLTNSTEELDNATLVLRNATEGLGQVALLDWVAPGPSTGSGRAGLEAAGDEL
UniProt Q6P4R8, whole entry: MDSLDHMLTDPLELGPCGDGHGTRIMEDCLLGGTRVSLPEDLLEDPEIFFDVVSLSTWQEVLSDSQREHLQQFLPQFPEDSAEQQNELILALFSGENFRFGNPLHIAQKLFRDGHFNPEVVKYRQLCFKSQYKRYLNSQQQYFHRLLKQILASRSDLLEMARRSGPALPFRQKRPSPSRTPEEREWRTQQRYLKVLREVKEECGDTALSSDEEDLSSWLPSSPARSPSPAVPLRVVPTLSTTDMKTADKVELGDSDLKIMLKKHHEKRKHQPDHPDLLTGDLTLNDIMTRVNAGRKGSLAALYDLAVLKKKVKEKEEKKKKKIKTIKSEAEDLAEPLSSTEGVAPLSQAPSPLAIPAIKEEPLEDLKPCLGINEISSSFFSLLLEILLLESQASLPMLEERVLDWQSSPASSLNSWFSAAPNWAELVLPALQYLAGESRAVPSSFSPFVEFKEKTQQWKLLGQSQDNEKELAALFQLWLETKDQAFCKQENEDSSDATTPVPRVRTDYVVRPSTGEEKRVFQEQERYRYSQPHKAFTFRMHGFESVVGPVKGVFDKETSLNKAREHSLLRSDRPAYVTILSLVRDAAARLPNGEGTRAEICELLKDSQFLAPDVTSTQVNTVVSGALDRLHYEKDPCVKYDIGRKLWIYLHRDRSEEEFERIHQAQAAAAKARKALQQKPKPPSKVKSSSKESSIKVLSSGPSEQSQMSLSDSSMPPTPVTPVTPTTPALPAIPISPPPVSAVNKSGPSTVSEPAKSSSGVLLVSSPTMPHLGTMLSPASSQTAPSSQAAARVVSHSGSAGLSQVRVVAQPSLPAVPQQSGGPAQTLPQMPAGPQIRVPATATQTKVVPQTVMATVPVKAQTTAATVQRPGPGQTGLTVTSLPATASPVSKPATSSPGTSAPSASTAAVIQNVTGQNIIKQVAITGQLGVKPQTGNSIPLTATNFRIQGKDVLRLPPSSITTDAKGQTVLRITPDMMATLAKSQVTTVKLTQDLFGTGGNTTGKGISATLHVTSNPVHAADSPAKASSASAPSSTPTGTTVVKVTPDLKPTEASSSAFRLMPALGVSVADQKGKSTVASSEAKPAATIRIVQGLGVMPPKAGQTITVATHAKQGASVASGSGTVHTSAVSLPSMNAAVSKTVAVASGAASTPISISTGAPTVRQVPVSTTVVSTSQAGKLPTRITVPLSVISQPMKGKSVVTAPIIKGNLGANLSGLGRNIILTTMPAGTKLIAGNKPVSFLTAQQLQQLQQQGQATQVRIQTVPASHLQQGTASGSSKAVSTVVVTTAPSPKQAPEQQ
UniProt Q6QNY0: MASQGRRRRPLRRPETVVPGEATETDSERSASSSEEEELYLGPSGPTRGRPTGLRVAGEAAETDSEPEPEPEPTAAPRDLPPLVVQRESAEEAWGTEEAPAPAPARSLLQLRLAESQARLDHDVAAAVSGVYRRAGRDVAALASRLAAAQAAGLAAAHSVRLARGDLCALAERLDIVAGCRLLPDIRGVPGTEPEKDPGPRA
UniProt Q6PGN9: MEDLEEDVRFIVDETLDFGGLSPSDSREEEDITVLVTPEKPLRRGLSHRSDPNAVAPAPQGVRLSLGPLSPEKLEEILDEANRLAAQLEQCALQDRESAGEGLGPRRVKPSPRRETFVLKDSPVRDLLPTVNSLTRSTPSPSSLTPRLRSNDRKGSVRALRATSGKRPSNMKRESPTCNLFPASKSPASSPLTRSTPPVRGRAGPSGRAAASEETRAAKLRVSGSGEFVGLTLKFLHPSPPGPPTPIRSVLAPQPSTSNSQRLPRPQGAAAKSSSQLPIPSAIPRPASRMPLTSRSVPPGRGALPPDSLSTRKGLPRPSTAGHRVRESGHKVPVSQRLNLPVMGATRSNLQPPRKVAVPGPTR
UniProt Q63HK3: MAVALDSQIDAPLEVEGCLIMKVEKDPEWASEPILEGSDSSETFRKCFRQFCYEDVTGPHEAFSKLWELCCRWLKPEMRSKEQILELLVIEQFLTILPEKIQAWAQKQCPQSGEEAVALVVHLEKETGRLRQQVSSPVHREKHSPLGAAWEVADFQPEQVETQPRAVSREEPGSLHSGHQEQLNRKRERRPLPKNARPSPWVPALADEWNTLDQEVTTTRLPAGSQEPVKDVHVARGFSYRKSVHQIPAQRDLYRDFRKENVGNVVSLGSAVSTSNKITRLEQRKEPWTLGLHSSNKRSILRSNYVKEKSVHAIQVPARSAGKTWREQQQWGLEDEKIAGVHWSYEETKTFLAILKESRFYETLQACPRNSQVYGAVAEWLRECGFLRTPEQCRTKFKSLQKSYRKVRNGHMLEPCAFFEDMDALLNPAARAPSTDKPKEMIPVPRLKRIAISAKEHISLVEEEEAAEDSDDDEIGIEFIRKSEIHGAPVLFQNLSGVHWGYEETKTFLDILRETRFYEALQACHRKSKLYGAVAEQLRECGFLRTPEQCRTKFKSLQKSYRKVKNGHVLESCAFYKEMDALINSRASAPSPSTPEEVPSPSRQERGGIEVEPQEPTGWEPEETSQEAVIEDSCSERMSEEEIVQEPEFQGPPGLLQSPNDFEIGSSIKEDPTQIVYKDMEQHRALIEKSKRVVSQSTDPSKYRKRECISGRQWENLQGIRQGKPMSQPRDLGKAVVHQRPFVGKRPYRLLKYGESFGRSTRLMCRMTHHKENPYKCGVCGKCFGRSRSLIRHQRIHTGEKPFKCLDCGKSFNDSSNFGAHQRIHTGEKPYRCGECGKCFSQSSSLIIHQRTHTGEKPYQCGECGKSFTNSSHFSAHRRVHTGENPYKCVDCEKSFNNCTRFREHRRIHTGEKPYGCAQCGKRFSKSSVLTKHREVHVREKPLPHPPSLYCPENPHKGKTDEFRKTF
UniProt Q6NSI8: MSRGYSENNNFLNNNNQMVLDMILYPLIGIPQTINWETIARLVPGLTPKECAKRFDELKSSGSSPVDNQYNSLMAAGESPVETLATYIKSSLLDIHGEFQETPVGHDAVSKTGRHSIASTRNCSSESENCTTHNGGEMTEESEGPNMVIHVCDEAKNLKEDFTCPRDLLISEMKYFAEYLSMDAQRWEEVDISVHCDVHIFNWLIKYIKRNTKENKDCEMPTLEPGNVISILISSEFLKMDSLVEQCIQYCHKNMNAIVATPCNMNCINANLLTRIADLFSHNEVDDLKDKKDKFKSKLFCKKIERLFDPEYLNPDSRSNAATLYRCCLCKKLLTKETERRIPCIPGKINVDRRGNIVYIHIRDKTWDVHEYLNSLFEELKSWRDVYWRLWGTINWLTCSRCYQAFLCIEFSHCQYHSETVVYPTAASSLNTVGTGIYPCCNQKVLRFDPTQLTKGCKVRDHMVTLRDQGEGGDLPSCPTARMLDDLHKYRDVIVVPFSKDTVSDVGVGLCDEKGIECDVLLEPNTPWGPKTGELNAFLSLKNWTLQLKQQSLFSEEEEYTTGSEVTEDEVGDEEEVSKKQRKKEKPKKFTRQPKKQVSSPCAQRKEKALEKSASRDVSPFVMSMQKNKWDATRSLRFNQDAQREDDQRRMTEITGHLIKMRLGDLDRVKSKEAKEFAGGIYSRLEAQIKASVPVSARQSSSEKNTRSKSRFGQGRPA
UniProt Q5W0V3: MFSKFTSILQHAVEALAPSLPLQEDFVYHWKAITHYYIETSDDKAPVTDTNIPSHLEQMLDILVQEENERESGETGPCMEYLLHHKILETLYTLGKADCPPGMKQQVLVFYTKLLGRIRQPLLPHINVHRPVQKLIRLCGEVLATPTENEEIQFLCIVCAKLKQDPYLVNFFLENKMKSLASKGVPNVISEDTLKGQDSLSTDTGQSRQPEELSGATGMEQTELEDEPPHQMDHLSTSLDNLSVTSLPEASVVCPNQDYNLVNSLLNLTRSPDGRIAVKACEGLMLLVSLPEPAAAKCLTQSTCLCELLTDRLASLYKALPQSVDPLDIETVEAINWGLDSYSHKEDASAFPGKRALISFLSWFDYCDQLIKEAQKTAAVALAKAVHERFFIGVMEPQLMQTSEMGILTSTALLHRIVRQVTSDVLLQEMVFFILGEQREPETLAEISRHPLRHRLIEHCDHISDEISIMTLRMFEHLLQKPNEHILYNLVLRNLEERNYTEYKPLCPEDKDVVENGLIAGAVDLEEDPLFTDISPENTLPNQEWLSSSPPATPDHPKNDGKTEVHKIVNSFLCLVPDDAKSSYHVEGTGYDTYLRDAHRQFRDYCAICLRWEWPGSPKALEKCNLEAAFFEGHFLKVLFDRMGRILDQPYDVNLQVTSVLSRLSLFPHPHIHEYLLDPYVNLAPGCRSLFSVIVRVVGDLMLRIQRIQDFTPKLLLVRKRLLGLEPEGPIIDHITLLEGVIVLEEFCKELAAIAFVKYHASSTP
UniProt Q6IBW4: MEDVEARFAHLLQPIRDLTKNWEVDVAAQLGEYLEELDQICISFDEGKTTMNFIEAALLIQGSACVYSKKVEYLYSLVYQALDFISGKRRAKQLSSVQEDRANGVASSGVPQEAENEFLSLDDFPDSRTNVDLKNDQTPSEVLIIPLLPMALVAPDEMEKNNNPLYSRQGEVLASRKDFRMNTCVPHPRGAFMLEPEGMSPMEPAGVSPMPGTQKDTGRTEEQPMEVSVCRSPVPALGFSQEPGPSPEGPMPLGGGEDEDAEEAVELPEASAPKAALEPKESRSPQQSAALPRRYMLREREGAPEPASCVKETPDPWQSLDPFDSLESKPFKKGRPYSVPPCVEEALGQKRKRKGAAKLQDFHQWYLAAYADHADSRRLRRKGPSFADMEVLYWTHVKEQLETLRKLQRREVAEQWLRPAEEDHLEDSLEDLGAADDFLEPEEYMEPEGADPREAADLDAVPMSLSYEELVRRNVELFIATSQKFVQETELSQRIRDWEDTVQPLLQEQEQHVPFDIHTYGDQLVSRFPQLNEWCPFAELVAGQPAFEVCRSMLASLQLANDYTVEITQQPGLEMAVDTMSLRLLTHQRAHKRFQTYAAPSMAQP

This passage reports log2 fold change results from the supplement of paper PMC12819154, “High-throughput peptide-centric local stability assay extends protein–ligand identification to membrane proteins, tissues and bacteria” (Nature Structural & Molecular Biology, 2025).

Compound in the test: Cc1nc(Nc2ncc(C(=O)Nc3c(C)cccc3Cl)s2)cc(N2CCN(CCO)CC2)n1 [dasatinib]
Put plainly: log2 fold change of tryptic peptide abundance, ligand vs vehicle (limited proteolysis) (log2 ratio); higher = more trypsin-susceptible (destabilized). The settings on record: ligand concentration: 5 uM; sample: K562 cleared lysate.
Take “UniProt Q68CJ9 (peptide sequence: YEERVLK, peptide start residue: 239)”: the log2 fold change was found to be 0.199.

“PDE4DIP (peptide sequence: YEASREDIYK, peptide start residue: 37) (UniProt Q5VU43)”: the log2 fold change was -0.866.

“NFRKB (peptide sequence: ITPDMMATLAK, peptide start residue: 972) (UniProt Q6P4R8)”: the log2 fold change is -0.26.

As to “BLOC1S3 (peptide sequence: GVPGTEPEKDPGPRA, peptide start residue: 188) (UniProt Q6QNY0)”, the log2 fold change is -0.0822.

Turning to “PSRC1 (peptide sequence: ESGHKVPVSQR, peptide start residue: 327) (UniProt Q6PGN9)”, the log2 fold change is -1.36.

Turning to “UniProt Q63HK3 (peptide sequence: SVHQIPAQR, peptide start residue: 243)”, the log2 fold change worked out at 0.484.

For “UniProt Q6NSI8 (peptide sequence: KFTRQPK, peptide start residue: 589)”, the log2 fold change was -0.0294.

Turning to “FAM160B1 (peptide sequence: SSYHVEGTGYDTYLR, peptide start residue: 582) (UniProt Q5W0V3)”, the log2 fold change was -0.196.

Take “NCAPH2 (peptide sequence: AKQLSSVQEDR, peptide start residue: 91) (UniProt Q6IBW4)”: the log2 fold change was 0.295.
